# Some of the results follow.
# Target: T1, OsSMF1 (Oryza sativa, UniProt Q6ZLB0 1-436)
# T1 sequence: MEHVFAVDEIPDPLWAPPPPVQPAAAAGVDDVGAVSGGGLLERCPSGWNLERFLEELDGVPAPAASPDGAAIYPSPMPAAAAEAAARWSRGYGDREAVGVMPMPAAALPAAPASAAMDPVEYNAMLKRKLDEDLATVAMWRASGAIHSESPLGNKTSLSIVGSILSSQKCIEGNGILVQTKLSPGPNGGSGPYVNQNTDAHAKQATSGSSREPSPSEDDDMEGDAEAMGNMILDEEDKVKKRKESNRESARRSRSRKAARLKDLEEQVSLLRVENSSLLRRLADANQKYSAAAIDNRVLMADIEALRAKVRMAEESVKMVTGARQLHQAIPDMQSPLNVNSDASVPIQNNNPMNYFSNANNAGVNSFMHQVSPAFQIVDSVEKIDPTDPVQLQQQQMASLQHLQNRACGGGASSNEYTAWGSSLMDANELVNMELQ
# Test: protein-binding microarray (RPBM); PBS, 2% BSA, 51.3 ng/ul salmon testes DNA, 50 uM zinc acetate, 200 nM TF, 25 C, 1 h; high values mean tight binding
# Conditions: protein: recombinant; tags: N-terminal polyhistidine and DsRed monomer fusion (pET32a); chain copies: 2; label: CyDye5-dUTP incorporated in the synthesized complementary strand; 3' TTTTT single-stranded linker to array surface; dsDNA, one strand shown
# How it was run: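 Per-feature fluorescence intensity (arbitrary units), read on an Axon 4000B scanner, is the binding signal. Transcription factors carrying an N-terminal polyhistidine tag and DsRed fusion were expressed in E. coli BL21-CodonPlus and purified on Ni–NTA. A custom Agilent array, made double-stranded by primer extension with Cy5-dUTP and blocked with 2% BSA, was incubated with 200 nM protein in PBS, 2% BSA, salmon testes DNA and 50 µM zinc acetate at 25 °C for 1 h and then washed.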
row,Sequence,binding signal
1,GCCGAACAGATAAAGGCCACGTCTTTTCTTTTGCTTTCTCCGGAGTCACCTAGTGCAG,4290 fluorescence intensity (a.u.)
2,CTTGGTGTCGACATCACCCGTTCGAGTCACTGGTGATGCACGGAGTCACCTAGTGCAG,5320 fluorescence intensity (a.u.)
3,GCAACAGAAAGAGAATCACCACGGGACAAAGGCGGTGACGCGGAGTCACCTAGTGCAG,4200 fluorescence intensity (a.u.)
4,ACGCGCGGGCGTGGCTGACGTGGCCCGGAGAAGGCGGAGGCGGAGTCACCTAGTGCAG,5770 fluorescence intensity (a.u.)
5,ATACCTGTCTGCCCAAAAGTTGCAGGTGACGATGGTGCAACGGAGTCACCTAGTGCAG,3290 fluorescence intensity (a.u.)
6,CGGCGCTGACACCGCCGCCGCCACCGCCATCTCCGGCGAACGGAGTCACCTAGTGCAG,3270 fluorescence intensity (a.u.)
7,TCGCATCCACACCTGTTTCCATCGTCCGTCACCACGTGCACGGAGTCACCTAGTGCAG,5800 fluorescence intensity (a.u.)
8,GTTGTATTCAACGACCAGTGGCGTCCCTGTGCCGGACCTTCGGAGTCACCTAGTGCAG,3200 fluorescence intensity (a.u.)
9,GTCAACAAAGCTCACCCACGTACATATGTAGTGGCATTTCCGGAGTCACCTAGTGCAG,5910 fluorescence intensity (a.u.)
10,GGATCTGGAAGAGTGGAAGGACGATGACTCAGGCGACCATCGGAGTCACCTAGTGCAG,6730 fluorescence intensity (a.u.)
11,ACACATGCATCAAGTAGAGGATACGGGGATTACACGTGGACGGAGTCACCTAGTGCAG,8700 fluorescence intensity (a.u.)
12,GGCATCCTCTATCCCGTCGCCACGTCCTCCGCCGCGGCGGCGGAGTCACCTAGTGCAG,7540 fluorescence intensity (a.u.)
13,TTGCTGAATATATGAGTGCGATGCTACGTGTATATTGATGCGGAGTCACCTAGTGCAG,5560 fluorescence intensity (a.u.)
14,ATACACGGCGACGCCCAAGGGCTTATCAAACTCTATCCACCGGAGTCACCTAGTGCAG,3190 fluorescence intensity (a.u.)
15,CACCAGCCGCAGCGTCAGCCTCCGCCTCCACCTACGTCGCCGGAGTCACCTAGTGCAG,5010 fluorescence intensity (a.u.)
16,TGTTGTAAGATAGTCTCTGAAAGCCTCTACCAGATTCCACCGGAGTCACCTAGTGCAG,28700 fluorescence intensity (a.u.)
17,ACGCACCTCCTCCCGCCTCGTCGTGGCGGCTCATTTAATCCGGAGTCACCTAGTGCAG,4620 fluorescence intensity (a.u.)
18,GGTTAATTTCTAGGGTATGGTGATGGTAATGTTGCGGCGACGGAGTCACCTAGTGCAG,3280 fluorescence intensity (a.u.)
19,CGCCGTACTCGGTACTCCATCAGCCTACTCAGCGTCACCTCGGAGTCACCTAGTGCAG,5680 fluorescence intensity (a.u.)
20,ATCAAGATAGTTCGGCCCATCCTAGCTTTTAGTCCATCACCGGAGTCACCTAGTGCAG,28900 fluorescence intensity (a.u.)
21,GCCGCCGTGGCCGTGGCCGTGGCCGCCGCCGTGGCGAGGCCGGAGTCACCTAGTGCAG,4360 fluorescence intensity (a.u.)

# Fetched one by one from the list above:
row,Sequence,binding signal
17,ACGCACCTCCTCCCGCCTCGTCGTGGCGGCTCATTTAATCCGGAGTCACCTAGTGCAG,4620 fluorescence intensity (a.u.)
2,CTTGGTGTCGACATCACCCGTTCGAGTCACTGGTGATGCACGGAGTCACCTAGTGCAG,5320 fluorescence intensity (a.u.)

# (listing goes on)

row,Sequence,binding signal
1,TGGGCCGTGATTGAGGCCTATATATACGTGGCCTGACAAACGGAGTCACCTAGTGCAG,4000 fluorescence intensity (a.u.)
2,TCCGCCGGAAACCACCGCCACGTTCTGCCCCGAGATGGGTCGGAGTCACCTAGTGCAG,3590 fluorescence intensity (a.u.)
3,ATCGAGCAGCTTGCATCGTATGACTGTAGAGATGATTCAGCGGAGTCACCTAGTGCAG,3670 fluorescence intensity (a.u.)
4,TGCTCAGCCAATGTTCCCAGTCGGCCGGCCACGGAGGCGGCGGAGTCACCTAGTGCAG,3410 fluorescence intensity (a.u.)
5,ACATTCCCTTGTTGTTTCCTTGTCATCTAAATTGTTATAACGGAGTCACCTAGTGCAG,4120 fluorescence intensity (a.u.)
6,TTCCAATGGCAAGACAGTGAGATAACCATTATCCACATCACGGAGTCACCTAGTGCAG,4190 fluorescence intensity (a.u.)
7,GTTCAGCTGAGCCTGGTGAACTAGAAAAGTTCCAACAGCGCGGAGTCACCTAGTGCAG,4470 fluorescence intensity (a.u.)
8,CATCGCGTTGTAACTTGTAAGACGTGTATACTCTTGTTACCGGAGTCACCTAGTGCAG,3650 fluorescence intensity (a.u.)
9,TGGCTTGTTGCAAGTTTACAAAGAGTACGTGTTCACTTGACGGAGTCACCTAGTGCAG,3310 fluorescence intensity (a.u.)
10,CATTCCCTCCTCCTCCTCCTCCTCCTCCTGAATCCCTCCTCGGAGTCACCTAGTGCAG,3380 fluorescence intensity (a.u.)
11,ATATAACCATGGTGGTGGTTGGTGGTAGACTCACCGCCACCGGAGTCACCTAGTGCAG,3160 fluorescence intensity (a.u.)
12,TCAATCTGCTTACACGCCTTTCTTGTTAGTGCTATAGGTTCGGAGTCACCTAGTGCAG,3330 fluorescence intensity (a.u.)
13,TGCGGTTTTAACCTCGTCCAGGTGGCCATTTCTATCCAGGCGGAGTCACCTAGTGCAG,4670 fluorescence intensity (a.u.)
14,ATAACTGCACCACACGCGCTTACTCATCTCTCTCAACACGCGGAGTCACCTAGTGCAG,5490 fluorescence intensity (a.u.)
15,GTACCTTCGACGCTTCGCCTTGTCAGTCACTGTCCCCTTCCGGAGTCACCTAGTGCAG,5320 fluorescence intensity (a.u.)
16,CACCCAAATGACGCACGACGCAGCGTGAGCACTGGCAAACCGGAGTCACCTAGTGCAG,3820 fluorescence intensity (a.u.)
17,AACTAATGAATAGTGTGACGTATTGCCGAAATTTCTCAACCGGAGTCACCTAGTGCAG,7380 fluorescence intensity (a.u.)
18,CTATCTATACATGACACGCCCCGTCTCCCTCCTTGCTTGACGGAGTCACCTAGTGCAG,3990 fluorescence intensity (a.u.)
19,ATACGATACCATAGGTATGTCAGCATGATATATATGTACTCGGAGTCACCTAGTGCAG,3890 fluorescence intensity (a.u.)
20,GCACCCATATGCAGCTCCGCCTGAATGCCGTCTCCGCACACGGAGTCACCTAGTGCAG,19700 fluorescence intensity (a.u.)
21,GAGTGCAGGTCACACAGATACGATCCACACAATAGAGAGACGGAGTCACCTAGTGCAG,4590 fluorescence intensity (a.u.)

# — article PMC7819943, “Rice protein-binding microarrays: a tool to detect cis-acting elements near promoter regions in rice”
